Measured values: the supplement of paper PMC12819154, “High-throughput peptide-centric local stability assay extends protein–ligand identification to membrane proteins, tissues and bacteria” (Nature Structural & Molecular Biology, 2025)
Some of the results follow. Small differences around the control level are noise.

Chains of the proteins cited; added tags and fusions are not shown. Lines headed by an entry give the natural chain unless they say otherwise; changes in a name come on top.
UniProt Q9UPU5: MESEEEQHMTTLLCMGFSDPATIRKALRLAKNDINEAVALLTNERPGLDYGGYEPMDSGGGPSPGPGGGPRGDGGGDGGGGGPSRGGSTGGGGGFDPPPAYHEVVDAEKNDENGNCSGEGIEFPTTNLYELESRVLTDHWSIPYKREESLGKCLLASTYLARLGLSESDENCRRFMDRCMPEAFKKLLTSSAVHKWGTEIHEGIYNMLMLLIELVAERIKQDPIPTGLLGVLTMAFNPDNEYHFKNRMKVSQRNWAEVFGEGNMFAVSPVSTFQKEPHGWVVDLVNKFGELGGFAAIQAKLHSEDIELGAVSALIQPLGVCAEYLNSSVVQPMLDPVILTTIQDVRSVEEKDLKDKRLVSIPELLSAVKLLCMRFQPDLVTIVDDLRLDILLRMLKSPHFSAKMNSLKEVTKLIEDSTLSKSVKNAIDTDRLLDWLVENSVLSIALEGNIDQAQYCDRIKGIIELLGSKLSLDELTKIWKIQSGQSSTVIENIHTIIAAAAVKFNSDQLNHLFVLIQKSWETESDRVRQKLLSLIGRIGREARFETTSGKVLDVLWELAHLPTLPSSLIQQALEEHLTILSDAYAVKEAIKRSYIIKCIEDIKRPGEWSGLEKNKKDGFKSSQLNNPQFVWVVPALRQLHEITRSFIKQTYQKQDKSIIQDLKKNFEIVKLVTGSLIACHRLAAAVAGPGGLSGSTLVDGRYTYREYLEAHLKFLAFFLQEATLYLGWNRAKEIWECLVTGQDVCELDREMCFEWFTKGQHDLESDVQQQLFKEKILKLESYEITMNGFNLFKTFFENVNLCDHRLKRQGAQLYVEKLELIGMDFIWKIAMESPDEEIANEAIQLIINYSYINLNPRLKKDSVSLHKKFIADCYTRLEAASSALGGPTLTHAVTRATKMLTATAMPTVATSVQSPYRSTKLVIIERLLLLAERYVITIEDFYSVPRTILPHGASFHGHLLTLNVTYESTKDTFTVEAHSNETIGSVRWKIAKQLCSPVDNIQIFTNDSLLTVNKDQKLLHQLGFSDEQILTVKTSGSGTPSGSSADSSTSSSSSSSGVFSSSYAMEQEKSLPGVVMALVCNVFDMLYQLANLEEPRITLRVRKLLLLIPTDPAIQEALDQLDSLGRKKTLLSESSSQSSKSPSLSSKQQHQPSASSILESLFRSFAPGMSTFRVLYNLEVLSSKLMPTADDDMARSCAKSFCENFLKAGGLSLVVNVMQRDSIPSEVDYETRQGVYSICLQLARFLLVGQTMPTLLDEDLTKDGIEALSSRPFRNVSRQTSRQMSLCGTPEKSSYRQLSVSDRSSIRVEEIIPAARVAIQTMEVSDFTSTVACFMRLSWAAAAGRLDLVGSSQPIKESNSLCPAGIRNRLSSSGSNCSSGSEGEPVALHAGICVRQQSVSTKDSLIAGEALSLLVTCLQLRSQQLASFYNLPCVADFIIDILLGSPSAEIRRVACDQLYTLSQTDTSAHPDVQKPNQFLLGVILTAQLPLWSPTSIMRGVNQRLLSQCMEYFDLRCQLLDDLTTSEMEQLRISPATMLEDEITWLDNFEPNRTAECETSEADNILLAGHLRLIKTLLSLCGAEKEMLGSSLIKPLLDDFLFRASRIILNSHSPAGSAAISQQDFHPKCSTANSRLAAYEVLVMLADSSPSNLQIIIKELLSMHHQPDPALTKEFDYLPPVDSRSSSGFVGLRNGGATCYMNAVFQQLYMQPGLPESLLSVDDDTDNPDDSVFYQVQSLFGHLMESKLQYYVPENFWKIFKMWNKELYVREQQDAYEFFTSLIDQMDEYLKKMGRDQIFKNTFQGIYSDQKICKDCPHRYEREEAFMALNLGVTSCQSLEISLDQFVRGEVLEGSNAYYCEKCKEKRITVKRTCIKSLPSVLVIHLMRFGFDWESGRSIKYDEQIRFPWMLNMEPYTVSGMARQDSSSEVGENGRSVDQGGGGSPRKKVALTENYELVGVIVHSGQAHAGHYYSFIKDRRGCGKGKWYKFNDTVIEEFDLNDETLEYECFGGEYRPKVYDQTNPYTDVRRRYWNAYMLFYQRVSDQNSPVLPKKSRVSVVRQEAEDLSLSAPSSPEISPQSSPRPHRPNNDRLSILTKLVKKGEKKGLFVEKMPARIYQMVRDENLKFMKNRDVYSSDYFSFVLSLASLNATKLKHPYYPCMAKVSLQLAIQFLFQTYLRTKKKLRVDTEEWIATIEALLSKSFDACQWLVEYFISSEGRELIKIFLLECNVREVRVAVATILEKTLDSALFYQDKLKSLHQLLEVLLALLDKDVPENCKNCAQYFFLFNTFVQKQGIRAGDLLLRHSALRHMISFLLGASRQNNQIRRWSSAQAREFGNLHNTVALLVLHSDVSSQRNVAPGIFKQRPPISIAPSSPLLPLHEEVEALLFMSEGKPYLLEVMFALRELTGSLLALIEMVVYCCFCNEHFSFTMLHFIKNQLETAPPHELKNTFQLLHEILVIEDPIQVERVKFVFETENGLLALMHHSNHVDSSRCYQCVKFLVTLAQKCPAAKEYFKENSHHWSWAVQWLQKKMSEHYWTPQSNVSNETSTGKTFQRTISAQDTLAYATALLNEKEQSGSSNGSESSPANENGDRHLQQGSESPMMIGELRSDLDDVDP
UniProt Q9UPY3: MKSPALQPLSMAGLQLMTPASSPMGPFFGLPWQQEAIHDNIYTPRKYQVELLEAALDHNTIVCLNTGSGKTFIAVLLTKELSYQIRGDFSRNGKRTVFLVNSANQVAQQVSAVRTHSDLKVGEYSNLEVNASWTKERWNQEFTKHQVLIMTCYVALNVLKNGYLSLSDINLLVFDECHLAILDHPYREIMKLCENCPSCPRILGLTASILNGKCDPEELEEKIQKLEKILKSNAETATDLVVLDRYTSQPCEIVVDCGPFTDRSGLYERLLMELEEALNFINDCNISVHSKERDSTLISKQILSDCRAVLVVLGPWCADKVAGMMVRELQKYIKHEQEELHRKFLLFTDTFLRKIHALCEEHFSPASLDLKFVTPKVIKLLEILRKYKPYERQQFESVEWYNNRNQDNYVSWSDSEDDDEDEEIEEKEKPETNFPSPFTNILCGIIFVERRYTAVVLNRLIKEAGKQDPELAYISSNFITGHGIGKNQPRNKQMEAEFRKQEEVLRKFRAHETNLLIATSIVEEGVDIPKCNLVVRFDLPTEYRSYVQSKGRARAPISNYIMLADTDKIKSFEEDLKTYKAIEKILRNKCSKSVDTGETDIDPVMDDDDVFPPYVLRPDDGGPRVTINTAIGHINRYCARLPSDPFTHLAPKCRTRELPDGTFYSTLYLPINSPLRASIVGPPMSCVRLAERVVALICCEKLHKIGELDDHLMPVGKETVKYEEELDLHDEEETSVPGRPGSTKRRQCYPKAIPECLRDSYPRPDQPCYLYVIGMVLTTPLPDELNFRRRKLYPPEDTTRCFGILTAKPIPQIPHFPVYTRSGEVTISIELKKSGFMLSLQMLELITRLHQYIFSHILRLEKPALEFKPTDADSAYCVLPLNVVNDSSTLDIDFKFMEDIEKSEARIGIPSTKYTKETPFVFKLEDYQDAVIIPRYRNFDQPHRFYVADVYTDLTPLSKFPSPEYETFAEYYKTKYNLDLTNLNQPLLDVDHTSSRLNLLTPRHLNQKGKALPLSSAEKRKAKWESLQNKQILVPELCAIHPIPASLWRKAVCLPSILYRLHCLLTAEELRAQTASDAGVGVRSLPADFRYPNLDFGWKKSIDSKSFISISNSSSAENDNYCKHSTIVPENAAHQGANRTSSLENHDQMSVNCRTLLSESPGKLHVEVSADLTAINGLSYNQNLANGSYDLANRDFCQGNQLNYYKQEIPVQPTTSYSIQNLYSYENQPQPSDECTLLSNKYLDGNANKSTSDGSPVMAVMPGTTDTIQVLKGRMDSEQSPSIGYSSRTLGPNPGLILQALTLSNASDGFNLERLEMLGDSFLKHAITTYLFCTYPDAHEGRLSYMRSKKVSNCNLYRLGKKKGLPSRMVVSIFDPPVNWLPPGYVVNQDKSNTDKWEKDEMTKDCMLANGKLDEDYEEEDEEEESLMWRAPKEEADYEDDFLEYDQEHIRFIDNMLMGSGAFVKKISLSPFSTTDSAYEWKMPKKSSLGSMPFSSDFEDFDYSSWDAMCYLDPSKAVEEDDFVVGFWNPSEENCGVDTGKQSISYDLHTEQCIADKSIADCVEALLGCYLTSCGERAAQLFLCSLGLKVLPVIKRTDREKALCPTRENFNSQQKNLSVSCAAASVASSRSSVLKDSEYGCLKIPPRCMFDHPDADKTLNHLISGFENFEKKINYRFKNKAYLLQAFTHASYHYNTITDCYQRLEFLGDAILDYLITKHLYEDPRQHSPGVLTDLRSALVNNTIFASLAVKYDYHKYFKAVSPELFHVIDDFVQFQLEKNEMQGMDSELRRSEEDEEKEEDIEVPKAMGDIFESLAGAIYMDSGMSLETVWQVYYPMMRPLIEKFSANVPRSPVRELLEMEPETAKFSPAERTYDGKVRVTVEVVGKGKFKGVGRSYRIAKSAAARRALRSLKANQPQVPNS
UniProt Q9Y314: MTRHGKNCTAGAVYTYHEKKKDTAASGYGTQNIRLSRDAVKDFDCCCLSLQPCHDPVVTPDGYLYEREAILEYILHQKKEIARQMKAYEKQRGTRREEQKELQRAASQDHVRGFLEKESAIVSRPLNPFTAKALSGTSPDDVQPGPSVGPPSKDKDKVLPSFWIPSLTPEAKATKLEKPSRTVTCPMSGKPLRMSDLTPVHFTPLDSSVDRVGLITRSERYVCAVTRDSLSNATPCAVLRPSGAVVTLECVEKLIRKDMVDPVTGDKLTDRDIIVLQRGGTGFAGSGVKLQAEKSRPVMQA
UniProt Q9ULJ6: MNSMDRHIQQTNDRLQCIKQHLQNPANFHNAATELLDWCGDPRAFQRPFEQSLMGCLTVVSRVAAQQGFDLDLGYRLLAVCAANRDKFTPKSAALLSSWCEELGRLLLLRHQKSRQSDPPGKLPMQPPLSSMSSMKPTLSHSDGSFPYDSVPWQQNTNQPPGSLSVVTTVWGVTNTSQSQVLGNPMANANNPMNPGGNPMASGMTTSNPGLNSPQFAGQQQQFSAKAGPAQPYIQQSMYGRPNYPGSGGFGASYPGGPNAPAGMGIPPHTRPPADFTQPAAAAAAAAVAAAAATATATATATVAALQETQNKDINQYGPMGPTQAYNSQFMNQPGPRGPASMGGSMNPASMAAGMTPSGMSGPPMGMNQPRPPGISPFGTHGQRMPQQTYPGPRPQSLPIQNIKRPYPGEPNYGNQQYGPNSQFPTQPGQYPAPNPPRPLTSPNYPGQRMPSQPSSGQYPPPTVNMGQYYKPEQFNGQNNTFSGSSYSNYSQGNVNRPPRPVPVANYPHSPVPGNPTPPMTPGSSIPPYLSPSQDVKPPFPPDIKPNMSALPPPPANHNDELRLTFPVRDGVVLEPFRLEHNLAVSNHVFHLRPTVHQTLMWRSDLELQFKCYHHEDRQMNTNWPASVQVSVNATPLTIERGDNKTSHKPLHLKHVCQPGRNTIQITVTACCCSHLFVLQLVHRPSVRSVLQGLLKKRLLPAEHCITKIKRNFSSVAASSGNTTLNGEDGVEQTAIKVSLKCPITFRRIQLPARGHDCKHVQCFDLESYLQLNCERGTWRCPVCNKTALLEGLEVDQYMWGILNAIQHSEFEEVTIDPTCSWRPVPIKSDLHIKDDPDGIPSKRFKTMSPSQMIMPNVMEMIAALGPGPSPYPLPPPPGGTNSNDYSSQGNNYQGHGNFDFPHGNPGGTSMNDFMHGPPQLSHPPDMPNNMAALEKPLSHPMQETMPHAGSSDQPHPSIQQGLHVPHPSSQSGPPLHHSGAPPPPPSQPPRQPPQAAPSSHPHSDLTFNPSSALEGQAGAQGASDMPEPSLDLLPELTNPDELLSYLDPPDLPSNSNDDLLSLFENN
UniProt Q9UNP9: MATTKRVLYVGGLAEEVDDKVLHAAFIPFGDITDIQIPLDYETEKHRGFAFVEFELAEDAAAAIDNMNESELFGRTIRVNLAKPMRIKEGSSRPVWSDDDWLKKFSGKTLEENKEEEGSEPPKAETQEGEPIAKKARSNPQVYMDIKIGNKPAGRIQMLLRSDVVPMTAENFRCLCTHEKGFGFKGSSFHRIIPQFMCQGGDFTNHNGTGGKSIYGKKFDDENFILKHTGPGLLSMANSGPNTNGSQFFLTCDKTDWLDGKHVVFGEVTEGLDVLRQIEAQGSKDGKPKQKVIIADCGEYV

These targets were tested with CN[C@@H]1C[C@H]2O[C@@](C)([C@@H]1OC)n1c3ccccc3c3c4c(c5c6ccccc6n2c5c31)C(=O)NC4 [staurosporine] (assay: log2 fold change of tryptic peptide abundance, ligand vs vehicle (limited proteolysis) (log2 ratio); higher = more trypsin-susceptible (destabilized)). Conditions: ligand concentration: 20 uM; sample: K562 cleared lysate; digestion: 4 min, 22 C (HT-PELSA RT4min, Orbitrap Astral).
Work on “UniProt Q9ULH7 (peptide sequence: MQLEVEKR, peptide start residue: 589)” yielded a log2 fold change of 0.354. Work on “USP24 (peptide sequence: LMPTADDDMAR, peptide start residue: 1185) (UniProt Q9UPU5)” yielded a log2 fold change of 0.397. “DICER1 (peptide sequence: LPSDPFTHLAPK, peptide start residue: 641) (UniProt Q9UPY3)” was tested, and the log2 fold change was 0.35. With “MRTO4 (peptide sequence: DNLHQVSKR, peptide start residue: 87) (UniProt Q9UKD2)” the log2 fold change was 0.798. “NOSIP (peptide sequence: EAILEYILHQK, peptide start residue: 68) (UniProt Q9Y314)” showed a log2 fold change of -0.212. “ZMIZ1 (peptide sequence: SDLHIKDDPDGIPSKR, peptide start residue: 829) (UniProt Q9ULJ6)” gave a log2 fold change of 0.524. “PPIE (peptide sequence: VNLAKPMR, peptide start residue: 79) (UniProt Q9UNP9)” showed a log2 fold change of 0.291.
